Values from PubChem BioAssay AID1224828 (NIAID, 2016).
Here is an unselected part of about 17,000 reagents. In the full data, 762 (4.5%) were called active. 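Active calls include both raised and lowered p65 entry, mostly lowered; wells with fewer than 50 cells lack a z-score.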 Raw values vary from plate to plate and are shown uncorrected. Reagents against one gene are numbered here.

- Aim: 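Find genes required for NF-kappaB p65 moving into the nucleus after LPS in mouse macrophages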 (primary screen)
- Cell system: mouse RAW264.7 G9 macrophage reporter cells (GFP-p65, Tnf promoter-mCherry)
- Knock-down reagent: siRNA pool against mouse genes, 100 nM
- Time to read-out: 2 days siRNA transfection, then 40 min LPS before fixation
- Challenge: LPS (Salmonella minnesota R595) at 10 ng/ml
- Read-out: 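Microscopy ratio of nuclear to perinuclear-ring GFP-p65 signal, scaled to the plate median; gene score is the average of two replicate robust z-scores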
- Reading the numbers: p65 translocation robust z-score: higher = more nuclear NF-kappaB p65 after LPS than the plate median; nuclear/cytoplasmic p65 ratio: higher = more nuclear NF-kappaB p65
- Rule for the call: 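Active if robust z is above 3.3 (negative regulators) or below -1.56, the Tlr4 control median (positive regulators); activity score 50 or more; control wells not called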
- Calls: active = hit (p65 shift raised or lowered); inactive = no clear change

gene | pool no. | p65 translocation robust z-score | nuclear/cytoplasmic p65 ratio, rep 1 | nuclear/cytoplasmic p65 ratio, rep 2 | low cell count flag | outcome
Plxdc1 (plexin domain containing 1) | 1 | – | 1.2 | 1.08 | fewer than 50 cells per well; well left out of scoring | inactive
Vmn1r82 (vomeronasal 1 receptor 82) | 1 | – | 1.31 | 1.09 | fewer than 50 cells per well; well left out of scoring | inactive
Nvl (nuclear VCP-like) | 1 | 0.42 | 1.8 | 1.57 | enough cells to score | inactive
Gm4827 (predicted gene 4827) | 1 | 1.58 | 1.78 | 1.79 | enough cells to score | inactive
Hltf (helicase-like transcription factor) | 1 | 1.19 | 1.7 | 1.75 | enough cells to score | inactive
Slc25a28 | 1 | -1.27 | 1.22 | 1.12 | enough cells to score | inactive
P2rx5 (purinergic receptor P2X, ligand-gated ion channel, 5) | 1 | 1.65 | 1.68 | 1.62 | enough cells to score | inactive
Plk2 (polo like kinase 2) | 1 | 1.06 | 1.38 | 1.51 | enough cells to score | inactive
Slc34a2 | 1 | – | 1.33 | 1.26 | fewer than 50 cells per well; well left out of scoring | inactive
Baz1a (bromodomain adjacent to zinc finger domain 1A) | 1 | 0.67 | 1.71 | 1.92 | enough cells to score | inactive
AI661453 (expressed sequence AI661453) | 1 | -0.6 | 1.63 | 1.36 | enough cells to score | inactive
Defb50 (defensin beta 50) | 1 | -1.19 | 1.55 | 1.35 | enough cells to score | inactive
Desi2 (desumoylating isopeptidase 2) | 1 | – | 1.32 | 1.04 | fewer than 50 cells per well; well left out of scoring | inactive
Kirrel1 (kirre like nephrin family adhesion molecule 1) | 1 | -0.39 | 1.57 | 1.32 | enough cells to score | inactive
Kirrel1 (kirre like nephrin family adhesion molecule 1) | 2 | 0.51 | 1.5 | 1.63 | enough cells to score | inactive
Spaar (small regulatory polypeptide of amino acid response) | 1 | -0.06 | 1.25 | 1.57 | enough cells to score | inactive
Zfp809 (zinc finger protein 809) | 1 | -1.17 | 1.5 | 1.53 | enough cells to score | inactive
Ppp2r1a (protein phosphatase 2, regulatory subunit A, alpha) | 1 | 0.05 | 1.57 | 1.36 | enough cells to score | inactive
Emc9 (ER membrane protein complex subunit 9) | 1 | 0.54 | 1.53 | 1.61 | enough cells to score | inactive
Ankrd49 (ankyrin repeat domain 49) | 1 | -0.76 | 1.4 | 1.43 | enough cells to score | inactive
Gnpda2 (glucosamine-6-phosphate deaminase 2) | 1 | 0.84 | 1.74 | 1.68 | enough cells to score | inactive
Or5aq1b (olfactory receptor family 5 subfamily AQ member 1B) | 1 | -0.61 | 1.7 | 1.44 | enough cells to score | inactive
Or52n2b (olfactory receptor family 52 subfamily N member 2B) | 1 | 0.68 | 1.61 | 1.29 | enough cells to score | inactive
Or2a5 (olfactory receptor family 2 subfamily A member 5) | 1 | -0.15 | 1.4 | 1.42 | enough cells to score | inactive
Sugct (succinyl-CoA glutarate-CoA transferase) | 1 | 0.4 | 1.62 | 1.8 | enough cells to score | inactive
Cbln1 (cerebellin 1 precursor protein) | 1 | -0.04 | 1.55 | 1.82 | enough cells to score | inactive
Ido2 (indoleamine 2,3-dioxygenase 2) | 1 | 1.09 | 1.6 | 1.66 | enough cells to score | inactive
Zfp655 (zinc finger protein 655) | 1 | -1.24 | 1.19 | 1.34 | enough cells to score | inactive
Slc5a8 | 1 | 1.98 | 1.55 | 1.58 | enough cells to score | inactive
Mindy4 (MINDY lysine 48 deubiquitinase 4) | 1 | 0.64 | 1.63 | 1.49 | enough cells to score | inactive
Aldh3a2 (aldehyde dehydrogenase family 3, subfamily A2) | 1 | 0.09 | 1.68 | 1.59 | enough cells to score | inactive
Tsr3 (TSR3 20S rRNA accumulation) | 1 | 2.01 | 1.69 | 1.85 | enough cells to score | inactive
Pde4a (phosphodiesterase 4A, cAMP specific) | 1 | 0.09 | 1.48 | 1.4 | enough cells to score | inactive
Pcdh18 (protocadherin 18) | 1 | -0.85 | 1.43 | 1.22 | enough cells to score | inactive
Ap1s2 (adaptor-related protein complex 1, sigma 2 subunit) | 1 | -0.8 | 1.47 | 1.58 | enough cells to score | inactive
Arid2 (AT-rich interaction domain 2) | 1 | – | 1.58 | 1.76 | fewer than 50 cells per well; well left out of scoring | inactive
Rdh10 (retinol dehydrogenase 10 (all-trans)) | 1 | -1.01 | 1.28 | 1.11 | enough cells to score | inactive
Ap2a1 (adaptor-related protein complex 2, alpha 1 subunit) | 1 | -0.19 | 1.59 | 1.65 | enough cells to score | inactive

7 entries from above, showing only “low cell count flag”.
Plxdc1 (plexin domain containing 1): fewer than 50 cells per well; well left out of scoring
Vmn1r82 (vomeronasal 1 receptor 82): fewer than 50 cells per well; well left out of scoring
Nvl (nuclear VCP-like): enough cells to score
Gm4827 (predicted gene 4827): enough cells to score
Hltf (helicase-like transcription factor): enough cells to score
Slc25a28: enough cells to score
P2rx5 (purinergic receptor P2X, ligand-gated ion channel, 5): enough cells to score

Further records:
gene | pool no. | p65 translocation robust z-score | nuclear/cytoplasmic p65 ratio, rep 1 | nuclear/cytoplasmic p65 ratio, rep 2 | low cell count flag | outcome
Foxa1 (forkhead box A1) | 1 | -0.02 | 1.45 | 1.35 | enough cells to score | inactive
Cd52 (CD52 antigen) | 1 | -1.24 | 1.5 | 1.48 | enough cells to score | inactive
Ndufaf7 (NADH:ubiquinone oxidoreductase complex assembly factor 7) | 1 | -0.44 | 1.38 | 1.37 | enough cells to score | inactive
Rpl8 (ribosomal protein L8) | 1 | 0.05 | 1.41 | 1.22 | enough cells to score | inactive
Mtmr11 (myotubularin related protein 11) | 1 | – | 1.61 | 1.4 | fewer than 50 cells per well; well left out of scoring | inactive
Rxfp4 (relaxin family peptide receptor 4) | 1 | 0.26 | 1.56 | 1.61 | enough cells to score | inactive
Stx8 (syntaxin 8) | 1 | 0.32 | 1.45 | 1.28 | enough cells to score | inactive
Arhgap45 (Rho GTPase activating protein 45) | 1 | -0.61 | 1.52 | 1.53 | enough cells to score | inactive
Rpia (ribose 5-phosphate isomerase A) | 1 | – | 1.54 | 1.32 | fewer than 50 cells per well; well left out of scoring | inactive
Ferd3l (Fer3 like bHLH transcription factor) | 1 | -0.49 | 1.47 | 1.44 | enough cells to score | inactive
Gart (phosphoribosylglycinamide formyltransferase) | 1 | 0.61 | 1.47 | 1.49 | enough cells to score | inactive
Fst (follistatin) | 1 | 0.11 | 1.42 | 1.41 | enough cells to score | inactive
Plac1 (placental specific protein 1) | 1 | – | 1.2 | 1.13 | fewer than 50 cells per well; well left out of scoring | inactive
Rab22a (RAB22A, member RAS oncogene family) | 1 | -0.56 | 1.45 | 1.31 | enough cells to score | inactive
Hmgn2 (high mobility group nucleosomal binding domain 2) | 1 | -0.06 | 1.4 | 1.39 | enough cells to score | inactive
Fbxo9 (F-box protein 9) | 1 | -0.07 | 1.5 | 1.32 | enough cells to score | inactive
Parp11 (poly (ADP-ribose) polymerase family, member 11) | 1 | -0.54 | 1.25 | 1.44 | enough cells to score | inactive
Slc12a3 | 1 | -0.37 | 1.48 | 1.46 | enough cells to score | inactive
Chl1 (cell adhesion molecule L1-like) | 1 | 0.49 | 1.59 | 1.95 | enough cells to score | inactive
Arhgef40 (Rho guanine nucleotide exchange factor 40) | 1 | -1.17 | 1.26 | 1.26 | enough cells to score | inactive
Spag17os (sperm associated antigen 17, opposite strand) | 1 | 1.37 | 1.82 | 2.02 | enough cells to score | inactive
